Experimental data taken from the supplement of paper PMC7661543.
Differences between knockout arms are mostly noise.

System: MDA-MB-231
Assay: relative cell number vs DMSO control (72 h) (% of DMSO); higher = less growth inhibition (more cells)
Protocol: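 QMAP-Seq: a pool of 5 breast cancer cell lines (ZR-75-1, SKBR3, HCC-38, MDA-MB-231, BT-20), each carrying 12 doxycycline-inducible Cas9 sgRNA perturbations (11 knockouts plus non-targeting sgNT), was treated with compounds for 72 h at four 10-fold doses (10 nM-10 uM or 1 nM-1 uM range). Barcodes were amplified and sequenced, and cell number was interpolated from 293T spike-in standard curves. The result is expressed as % of the median of DMSO wells. Two biological replicates.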

CC(C)CC(=O)Nc1n[nH]c2c1CN(C(=O)C1CCN(C)CC1)C2(C)C
Conditions | relative cell number
sgRNA knockout: sgATF3, 10 nM | 109
sgRNA knockout: sgATF3, 100 nM | 69.8
sgRNA knockout: sgATF3, 1000 nM | 38.1
sgRNA knockout: sgATF3, 10000 nM | 12.1
sgRNA knockout: sgATF4, 10 nM | 137
sgRNA knockout: sgATF4, 100 nM | 58.8
sgRNA knockout: sgATF4, 1000 nM | 33.1
sgRNA knockout: sgATF4, 10000 nM | 15.3
sgRNA knockout: sgATF6, 10 nM | 101.2
sgRNA knockout: sgATF6, 100 nM | 56.4
sgRNA knockout: sgATF6, 1000 nM | 36.1
sgRNA knockout: sgATF6, 10000 nM | 10.3
sgRNA knockout: sgATG7, 10 nM | 133
sgRNA knockout: sgATG7, 100 nM | 63.1
sgRNA knockout: sgATG7, 1000 nM | 22.5
sgRNA knockout: sgATG7, 10000 nM | 11
sgRNA knockout: sgERN1, 10 nM | 84.2
sgRNA knockout: sgERN1, 100 nM | 70.9
sgRNA knockout: sgERN1, 1000 nM | 26.4
sgRNA knockout: sgERN1, 10000 nM | 12.66
sgRNA knockout: sgHSF1, 10 nM | 93.4
sgRNA knockout: sgHSF1, 100 nM | 63.2
sgRNA knockout: sgHSF1, 1000 nM | 26.7
sgRNA knockout: sgHSF1, 10000 nM | 11.1
sgRNA knockout: sgHSF2, 10 nM | 117
sgRNA knockout: sgHSF2, 100 nM | 55
sgRNA knockout: sgHSF2, 1000 nM | 32.7
sgRNA knockout: sgHSF2, 10000 nM | 12.2
sgRNA knockout: sgKEAP1, 10 nM | 122
sgRNA knockout: sgKEAP1, 100 nM | 67.7
sgRNA knockout: sgKEAP1, 1000 nM | 32.3
sgRNA knockout: sgKEAP1, 10000 nM | 11.4
sgRNA knockout: sgNFE2L2, 10 nM | 109
sgRNA knockout: sgNFE2L2, 100 nM | 73.6
sgRNA knockout: sgNFE2L2, 1000 nM | 32
sgRNA knockout: sgNFE2L2, 10000 nM | 13.9
sgRNA knockout: sgSLC35F2, 10 nM | 100
sgRNA knockout: sgSLC35F2, 100 nM | 52.1
sgRNA knockout: sgSLC35F2, 1000 nM | 31.3
sgRNA knockout: sgSLC35F2, 10000 nM | 15.2
sgRNA knockout: sgXBP1, 10 nM | 125
sgRNA knockout: sgXBP1, 100 nM | 63.5
sgRNA knockout: sgXBP1, 1000 nM | 38.3
sgRNA knockout: sgXBP1, 10000 nM | 14.9

Cc1c(Cn2c(C)nc3c(C(=O)O)cc(N4CCOCC4)cc32)cccc1C(F)(F)F
Conditions | relative cell number
sgRNA knockout: sgATF3, 10 nM | 112
sgRNA knockout: sgATF3, 100 nM | 128
sgRNA knockout: sgATF3, 1000 nM | 116
sgRNA knockout: sgATF3, 10000 nM | 118
sgRNA knockout: sgATF4, 10 nM | 93.7
sgRNA knockout: sgATF4, 100 nM | 142
sgRNA knockout: sgATF4, 1000 nM | 84.4
sgRNA knockout: sgATF4, 10000 nM | 97.4
sgRNA knockout: sgATF6, 10 nM | 105
sgRNA knockout: sgATF6, 100 nM | 92
sgRNA knockout: sgATF6, 1000 nM | 103
sgRNA knockout: sgATF6, 10000 nM | 95
sgRNA knockout: sgATG7, 10 nM | 85.5
sgRNA knockout: sgATG7, 100 nM | 107
sgRNA knockout: sgATG7, 1000 nM | 94.1
sgRNA knockout: sgATG7, 10000 nM | 89.1
sgRNA knockout: sgERN1, 10 nM | 86.6
sgRNA knockout: sgERN1, 100 nM | 111
sgRNA knockout: sgERN1, 1000 nM | 94.1
sgRNA knockout: sgERN1, 10000 nM | 99.2
sgRNA knockout: sgHSF1, 10 nM | 96.5
sgRNA knockout: sgHSF1, 100 nM | 101
sgRNA knockout: sgHSF1, 1000 nM | 119
sgRNA knockout: sgHSF1, 10000 nM | 95.2
sgRNA knockout: sgHSF2, 10 nM | 87.7
sgRNA knockout: sgHSF2, 100 nM | 106
sgRNA knockout: sgHSF2, 1000 nM | 123
sgRNA knockout: sgHSF2, 10000 nM | 109
sgRNA knockout: sgKEAP1, 10 nM | 115
sgRNA knockout: sgKEAP1, 100 nM | 116.4
sgRNA knockout: sgKEAP1, 1000 nM | 127
sgRNA knockout: sgKEAP1, 10000 nM | 95.6
sgRNA knockout: sgNFE2L2, 10 nM | 101
sgRNA knockout: sgNFE2L2, 100 nM | 96.8
sgRNA knockout: sgNFE2L2, 1000 nM | 104
sgRNA knockout: sgNFE2L2, 10000 nM | 108
sgRNA knockout: sgSLC35F2, 10 nM | 97.8
sgRNA knockout: sgSLC35F2, 100 nM | 92.6
sgRNA knockout: sgSLC35F2, 1000 nM | 87.48
sgRNA knockout: sgSLC35F2, 10000 nM | 96.2
sgRNA knockout: sgXBP1, 10 nM | 98.4
sgRNA knockout: sgXBP1, 100 nM | 101
sgRNA knockout: sgXBP1, 1000 nM | 117
sgRNA knockout: sgXBP1, 10000 nM | 94.8

Cc1cc(N2CCOCC2)cc2[nH]c(-c3c(NC[C@@H](O)c4cccc(Cl)c4)cc[nH]c3=O)nc12
Conditions | relative cell number
sgRNA knockout: sgATF3, 10 nM | 104
sgRNA knockout: sgATF3, 100 nM | 83.13
sgRNA knockout: sgATF3, 1000 nM | 87
sgRNA knockout: sgATF3, 10000 nM | 24.1
sgRNA knockout: sgATF4, 10 nM | 101
sgRNA knockout: sgATF4, 100 nM | 106
sgRNA knockout: sgATF4, 1000 nM | 88.2
sgRNA knockout: sgATF4, 10000 nM | 30.8
sgRNA knockout: sgATF6, 10 nM | 105
sgRNA knockout: sgATF6, 100 nM | 73
sgRNA knockout: sgATF6, 1000 nM | 80.2
sgRNA knockout: sgATF6, 10000 nM | 30.5
sgRNA knockout: sgATG7, 10 nM | 92.1
sgRNA knockout: sgATG7, 100 nM | 76.8
sgRNA knockout: sgATG7, 1000 nM | 98.2
sgRNA knockout: sgATG7, 10000 nM | 26.6
sgRNA knockout: sgERN1, 10 nM | 116
sgRNA knockout: sgERN1, 100 nM | 78.2
sgRNA knockout: sgERN1, 1000 nM | 82.2
sgRNA knockout: sgERN1, 10000 nM | 30.1
sgRNA knockout: sgHSF1, 10 nM | 89.6
sgRNA knockout: sgHSF1, 100 nM | 65.8
sgRNA knockout: sgHSF1, 1000 nM | 83.8
sgRNA knockout: sgHSF1, 10000 nM | 25
sgRNA knockout: sgHSF2, 10 nM | 109
sgRNA knockout: sgHSF2, 100 nM | 69.1
sgRNA knockout: sgHSF2, 1000 nM | 77.6
sgRNA knockout: sgHSF2, 10000 nM | 35.2
sgRNA knockout: sgKEAP1, 10 nM | 98.3
sgRNA knockout: sgKEAP1, 100 nM | 79.9
sgRNA knockout: sgKEAP1, 1000 nM | 82.8
sgRNA knockout: sgKEAP1, 10000 nM | 36.6
sgRNA knockout: sgNFE2L2, 10 nM | 102
sgRNA knockout: sgNFE2L2, 100 nM | 83.7
sgRNA knockout: sgNFE2L2, 1000 nM | 77.2
sgRNA knockout: sgNFE2L2, 10000 nM | 30.6
sgRNA knockout: sgSLC35F2, 10 nM | 92.3
sgRNA knockout: sgSLC35F2, 100 nM | 95.2
sgRNA knockout: sgSLC35F2, 1000 nM | 94.9
sgRNA knockout: sgSLC35F2, 10000 nM | 23
sgRNA knockout: sgXBP1, 10 nM | 80.1
sgRNA knockout: sgXBP1, 100 nM | 77.7
sgRNA knockout: sgXBP1, 1000 nM | 79.9
sgRNA knockout: sgXBP1, 10000 nM | 25.3
